No constants are given. Whether binding was seen depends on the method and setting. For part of these data: Binding calls can cover weak binding; strength is not graded here. For part of these data: In cells and extracts the contact can be indirect. For part of these data: Tags and fused reporters may be left off the sequences shown.

By UniProt entry, the sequences of proteins in these tests, tags left out. Where a name states a change or a piece, a line headed by the entry shows the natural chain unless it says otherwise.
UniProt D5LM18: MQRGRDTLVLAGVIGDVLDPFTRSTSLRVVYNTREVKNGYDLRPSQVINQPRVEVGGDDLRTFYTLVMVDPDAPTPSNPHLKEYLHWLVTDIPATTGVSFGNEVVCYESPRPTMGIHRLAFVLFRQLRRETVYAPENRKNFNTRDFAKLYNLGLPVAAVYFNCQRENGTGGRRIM

The target of test [1] is RoFTmu1 (R7Q) fused to the C-terminal half of YFP (Rosa hybrida). Briefly: split reporter; BiFC in N. benthamiana leaf epidermis cells; AtFD-YFP^N (pFGC-YN173) with FT/TFL1 homologs fused to YFP^C (pFGC-YC155); YFP fluorescence by confocal microscopy.
Test [2] deals with RoFT-YFP^C (Rosa FT fused to the C-terminal half of YFP) (Rosa hybrida). The test is described as above.
Test [3] concerns the target RoFTmu2 (T65I) fused to the C-terminal half of YFP (Rosa hybrida). Described as above.
For test [4], the target named is FaTFL1 (Fragaria TFL1) fused to the C-terminal half of YFP (Fragaria ananassa). The description is as above.
Test [5] concerns the target PhFT (Petunia FT) fused to the C-terminal half of YFP (Petunia hybrida) (UniProt D5LM18). The test is described as above.
For test [6], the target named is RoTFL1 (Rosa TFL1) fused to the C-terminal half of YFP (Rosa hybrida). The test is described as above.
For test [7], the target named is RoFTmu4 (Y153C) fused to the C-terminal half of YFP (Rosa hybrida). The test is described as above.
Test [8] concerns the target RoFTmu5 (N154D) fused to the C-terminal half of YFP (Rosa hybrida). The description is as above.
Test [9] has as its target RoFTmu3 (A116S) fused to the C-terminal half of YFP (Rosa hybrida). The test is described as above.
Test [10] deals with RoFTmu3 (A116S), bait in pGBKT7 (Rosa hybrida). Briefly: two-hybrid; AtFD as prey in PGADT7, FT/TFL1 homologs as bait in PGBKT7; co-transformed yeast selected on SD-Leu/-Trp, interactions tested on SD-Leu/-Trp/-His/-Ade/X-a-Gal; three independent clones for each transformation.
For test [11], the target named is RoFTmu4 (Y153C), bait in pGBKT7 (Rosa hybrida). The description is as above.
The target in test [12] is Fragaria TFL1 (FaTFL1), bait in pGBKT7 (Fragaria ananassa). The test is described as above.
For test [13], the target named is RoFTmu1 (R7Q), bait in pGBKT7 (Rosa hybrida). The test is described as above.
For test [14], the target named is RoFTmu2 (T65I), bait in pGBKT7 (Rosa hybrida). The description is as above.
Test [15] deals with Rosa FT (RoFT), bait in pGBKT7 (Rosa hybrida). The test is described as above.
For test [16], the target named is RoFTmu5 (N154D), bait in pGBKT7 (Rosa hybrida). The test is described as above.
Test [17] deals with Petunia FT (PhFT), bait in pGBKT7 (Petunia hybrida). The description is as above.
Test [18] addresses Rosa TFL1 (RoTFL1), bait in pGBKT7 (Rosa hybrida). The description is as above.

B1: AtFD-YFP^N (Arabidopsis FD fused to the N-terminal half of YFP) (protein, UniProt Q84JK2 1-285)
chain: MLSSAKHQRNHRLSATNKNQTLTKVSSISSSSPSSSSSSSSTSSSSPLPSQDSQAQKRSLVTMEEVWNDINLASIHHLNRHSPHPQHNHEPRFRGQNHHNQNPNSIFQDFLKGSLNQEPAPTSQTTGSAPNGDSTTVTVLYSSPFPPPATVLSLNSGAGFEFLDNQDPLVTSNSNLHTHHHLSNAHAFNTSFEALVPSSSFGKKRGQDSNEGSGNRRHKRMIKNRESAARSRARKQAYTNELELEVAHLQAENARLKRQQDQLKMAAAIQQPKKNTLQRSSTAPF
For the molecule B1, the binding entry in test [1] is “binds”; in test [2] it was “binds”; in test [3], “binds”; in test [4], “no binding”; in test [5], “binds”; in [6] it was “no binding”. The binding result in [7], in [8] and in [9] was “binds” in each case.

B2: Arabidopsis FD (AtFD), prey in pGADT7 (protein, UniProt Q84JK2 1-285)
chain: MLSSAKHQRNHRLSATNKNQTLTKVSSISSSSPSSSSSSSSTSSSSPLPSQDSQAQKRSLVTMEEVWNDINLASIHHLNRHSPHPQHNHEPRFRGQNHHNQNPNSIFQDFLKGSLNQEPAPTSQTTGSAPNGDSTTVTVLYSSPFPPPATVLSLNSGAGFEFLDNQDPLVTSNSNLHTHHHLSNAHAFNTSFEALVPSSSFGKKRGQDSNEGSGNRRHKRMIKNRESAARSRARKQAYTNELELEVAHLQAENARLKRQQDQLKMAAAIQQPKKNTLQRSSTAPF
In the case of B2, the binding entry in test [10] is on record as “binds”; in test [11], “binds”; in test [12], “no binding”; in test [13], “binds”; in test [14] it was “binds”; in test [15] it was “binds”. For the same molecule, the binding entry is “binds” in [16], “no binding” in test [17] and “no binding” in test [18].

Source of the values: PMC5421193.
